# Hit rate of the full screen: of about 400,000 compounds, about 13,000 (3.2%) were called active. Inconclusive results, whose numbers are uncertain, are shown with a selection of clear calls. The call rests on the fitted dose curve; in most records, active means well fitted cell-killing curve with a large enough effect; inconclusive means small, poorly fitted or top-dose-only effect, or effect the other way; inactive means flat fitted curve, though single readings scatter. Where the call is inconclusive, the potency comes from a doubtful curve fit.
# Test: qHTS assay for MDR1-selective chemotherapeutics: Primary screen using the drug-selected MDR subline cells KB-V1; further: nearly all actives have a fitted effect of over 60% in size
# Conditions: KB-V1 MDR cells viability, CellTiter-Glo, 72 h; activity change, negative = cytotoxicity: at 46.1 µM (top of the series)
# Summary of the method: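 Cytotoxicity toward P-gp-expressing KB-V1 cells was determined as loss of CellTiter-Glo luminescence after 72 h at 37 degrees C. Compounds were tested in quantitative HTS format across a concentration range, with curves fitted to normalized data.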
# On the % scale 0 is the no-effect control and ±100 the full control effect; potency means the concentration at half of the fitted maximal effect.
Compound,Potency,"activity change, negative = cytotoxicity"
O=C(O)c1ccc(/C=N/NC(=O)c2ccc(Br)cc2)cc1,"inconclusive: 13 µM [rising, partial curve]",–
CC1(C)C[C@H](O)[C@@]23C[C@@H](OC2=O)[C@]2(C)C(=CCC4[C@@]5(C)CC[C@H](O)C(C)(C)C5CC[C@]42C)[C@@H]3C1 (some centres not stated),–,inactive: -4.63%
COc1ccccc1C1CCN(C(=O)c2ccccc2)CC1,–,inactive: -19.4%
CCc1nc2ccc(C(=O)Nc3cccc(C(C)=O)c3)cc2nc1CC,"inconclusive: 29.1 µM [cytotoxic, single point]",–
O=C(N/N=C/c1ccccn1)c1ccc(NC(=O)c2ccccc2Cl)cc1,"inconclusive: 29.1 µM [rising, single point]",–
COC(=O)C(CCC(=O)CN1C(=O)c2ccccc2C1=O)N1C(=O)c2ccccc2C1=O (configuration not stated),–,inactive: 19.8%
CC1CN(C(=O)N2CCC(C(=O)NCc3ccco3)CC2)c2ccccc2O1 (configuration not stated),–,inactive: -0.139%
O=C(NCc1ccccc1)C1CC(=O)N(c2ccc(OCC(=O)N3CCOCC3)cc2)C1 (configuration not stated),–,inactive: 15%
Cc1cc(NC(=O)COC(=O)c2cnccn2)ccc1Br,"inconclusive: 16.4 µM [rising, single point]",–
O=C(CNC(=O)c1ccc(F)cc1)N/N=C/c1cccnc1,–,inactive: 14.5%
O=C(Nc1nc2ccccc2n1CCOc1ccccc1Cl)c1ccccc1,–,inactive: 1.41%
COCCCn1c(SCC(=O)c2ccccc2)nc2ccccc2c1=O,"inconclusive: 6.51 µM [cytotoxic, partial curve]",–
COc1ccccc1C1CN=NC12CCCc1ccccc1C2=O (configuration not stated),"inconclusive: 29.1 µM [cytotoxic, single point]",–
Cn1c(=O)c2c(nc(CN3CCc4ccccc4C3)n2Cc2ccc(Cl)cc2)n(C)c1=O,–,inactive: 3.51%
COC(=O)N/N=C/c1cn(Cc2ccc(Cl)cc2Cl)c2ccccc12,active: 16.4 µM,–
CCn1ncc(Br)c1C(=O)Nc1ccc(F)cc1F,"inconclusive: 29.1 µM [cytotoxic, single point]",–
CC(Sc1ncnc2sccc12)C(=O)Nc1ccc(S(=O)(=O)N2CCOCC2)cc1 (configuration not stated),active: 23.1 µM,–
COc1ccc(N(Cc2ccccc2)S(=O)(=O)c2cccc(C(=O)NCC3CCCO3)c2)cc1 (configuration not stated),"inconclusive: 29.1 µM [cytotoxic, single point]",–
CN(CC(=O)Nc1cccc(F)c1)C(=O)CCCn1c(=O)oc2ccccc21,–,inactive: -23.1%
CC(=O)Nc1ccc(NC(=O)C(C)OC(=O)c2cccc(S(=O)(=O)N3CCCCCC3)c2)cc1 (configuration not stated),"inconclusive: 9.2 µM [cytotoxic, partial curve]",–
O=C(Nc1ccccc1F)c1ccc2nc(N3C(=O)CCC3=O)sc2c1,–,inactive: -2.14%
Cc1cccc(C)c1-n1nnnc1C1(C)CCC(=O)N1Cc1cccnc1 (configuration not stated),–,inactive: -7.81%
COc1c(O)cc2c(c1O)[C@@H]1O[C@H](CO)[C@@H](O)[C@H](O)[C@H]1OC2=O,"inconclusive: 29.1 µM [rising, single point]",–
Cc1[nH]c2ccccc2c1Cc1nnc(SCC(=O)NCc2ccco2)o1,"inconclusive: 29.1 µM [rising, single point]",–

Compound,Potency,"activity change, negative = cytotoxicity"
Cc1nn(C)c(C)c1CN(C)C(=O)C1CCC(=O)N(C2CCCCCC2)C1 (configuration not stated),–,inconclusive: -11.1%
CCN(CC)c1ccc(/C=C/c2ccc3ccccc3n2)cc1,"inconclusive: 29.1 µM [cytotoxic, single point]",–
O=C(CCc1ccccc1)NC(=S)Nc1cccc(C(=O)O)c1,–,inactive: 32.5%
O=C(CCCN1C(=O)/C(=C\c2cccs2)SC1=S)Nc1cccnc1,"inconclusive: 16.4 µM [cytotoxic, partial curve, poor fit]",–
O=C(/C=C/c1ccccc1)N1CCOCC1,"inconclusive: 20.6 µM [rising, single point]",–
O=C(Nc1ccc(N2C(=O)C3C4C=CC(C4)C3C2=O)cc1)Nc1nnc(C(F)(F)F)s1 (configuration not stated),"inconclusive: 3.66 µM [rising, partial curve, poor fit]",–
CN(C)c1ccc(-n2cccc2/C=C/[N+](=O)[O-])cc1,"inconclusive: 29.1 µM [cytotoxic, single point]",–
CC(=O)c1ccc(NC(=O)CCc2ccc(C)o2)cc1,–,inactive: 0%
CCCN(/C=N/c1sc2c(c1C#N)CCCCC2)CCC,"inconclusive: 25.9 µM [cytotoxic, partial curve, poor fit]",–
O=C(/C=C/c1cccc(Cl)c1)Nn1c(-c2cccs2)nc2ccccc2c1=O,–,inactive: -5.49%
CCN(CC)C(=O)c1ccc2sc([C@@H]3O[C@H](CO)[C@H](O)[C@H](O)[C@H]3O)nc2c1,–,inactive: -7.08%
CCCCN(C(=O)c1cc2c(s1)CCCCC2)c1c(N)n(CCC)c(=O)[nH]c1=O,"inconclusive: 23.1 µM [rising, single point]",–
CCOC(=O)c1c(C)n(CCO)c2ccc(O)cc12,–,inactive: 17.7%
COC(=O)c1sc2cccc(F)c2c1S(=O)(=O)Nc1cc(C)c(Cl)cc1OC,"inconclusive: 11.6 µM [cytotoxic, partial curve]",–
CN(CC(=O)Nc1ccc(N2CCOCC2)cc1)C(=O)CCc1cc(C(C)(C)C)c(O)c(C(C)(C)C)c1,active: 3.66 µM,–
CCOC(=O)Cc1c(C)nc2c(-c3ccccc3)c(C)nn2c1C,"inconclusive: 20.6 µM [cytotoxic, single point]",–
COc1ccccc1-c1nn(-c2ccccc2)cc1C(=O)N1CCc2ccccc2C1,–,inactive: -29.5%
CCOC(=O)c1c(NC(=O)COc2cccc3c2CCN(C)C3=O)sc2c1CCC2,"inconclusive: 14.6 µM [cytotoxic, single point]",–
Cc1cccc(NC(=O)C(C)Sc2ncnc3sccc23)c1 (configuration not stated),"inconclusive: 20.6 µM [cytotoxic, partial curve]",–
CCOC(=O)c1cnn(Cc2cccc(Cl)c2)c1C,"inconclusive: 23.1 µM [cytotoxic, single point]",–
COc1ccc(C)cc1NC(=S)N1CCN(S(C)(=O)=O)CC1,"inconclusive: 7.31 µM [rising, partial curve, poor fit]",–
CC(C)(C)c1ccc(Cn2cnc(-c3ccc([N+](=O)[O-])cc3)c2)cc1,"inconclusive: 18.4 µM [cytotoxic, single point]",–
Cc1cccc(NC(=O)CN(C2=NC3CS(=O)(=O)CC3S2)c2ccccc2F)c1 (configuration not stated),–,inactive: -14.7%
Cc1ccccc1C(=O)Nc1cccc(C(=O)N/N=C/c2cc(Cl)cc([N+](=O)[O-])c2O)c1,"inconclusive: 0.411 µM [cytotoxic, full curve]",–

# Single values from the entries so far:
# Value for CN(CC(=O)Nc1ccc(N2CCOCC2)cc1)C(=O)CCc1cc(C(C)(C)C)c(O)c(C(C)(C)C)c1 under Potency: active: 3.66 µM
# Value for Cc1ccccc1C(=O)Nc1cccc(C(=O)N/N=C/c2cc(Cl)cc([N+](=O)[O-])c2O)c1 under Potency: inconclusive: 0.411 µM [cytotoxic, full curve]

# The results go on.

Compound,Potency,"activity change, negative = cytotoxicity"
O=C(NCC1(N2CCCCC2)CCCCC1)c1cccc(S(=O)(=O)Nc2ccccc2Cl)c1,"inconclusive: 14.6 µM [cytotoxic, partial curve]",–
O=C(CN1CC[C@@]2(O)CCCC[C@H]2[C@@H]1c1ccc(F)cc1)NCc1ccco1,"inconclusive: 14.6 µM [rising, single point]",–
Cn1c(N2CCCC2)nc2c1c(=O)n(Cc1ccc(F)cc1)c(=O)n2C,"inconclusive: 29.1 µM [cytotoxic, single point]",–
CN(Cc1ccccc1)C(=O)COc1ccc(N(C)S(=O)(=O)c2ccc(F)cc2)cc1,"inconclusive: 9.2 µM [cytotoxic, partial curve]",–
CCC(CC)C(=O)Nc1cccc(C(=O)Nc2nnc(C)s2)c1,–,inactive: -17.3%
CC(=O)NC(c1cccc(F)c1)c1nc(-c2ccccc2)cs1 (configuration not stated),"inconclusive: 29.1 µM [cytotoxic, single point]",–
Cc1cc2cc(CNC(=O)NC3CCCCC3)ccc2[nH]1,–,inactive: 2.07%
Clc1ccc(N2CCN(/N=C/c3ccncc3)CC2)cc1,"inconclusive: 29.1 µM [cytotoxic, single point]",–
CCCCc1ccc(C(=O)COC(=O)c2ccc3nc(C)c(C)nc3c2)cc1,–,inactive: 50.6%
CCOC(=O)C1=CCC(c2ccccc2)N(S(=O)(=O)c2ccc(C)cc2)[C@H]1CC (some centres not stated),"inconclusive: 7.31 µM [cytotoxic, partial curve]",–
CC(/C=N/NC(=O)c1cc(-c2ccc(C)o2)[nH]n1)=C\c1ccccc1,–,inactive: -0.641%
CC(=O)c1c(C)[nH]c(C(=O)N2CCc3ccccc3C2)c1C,"inconclusive: 23.1 µM [cytotoxic, single point]",–
O=C1N/C(=N\N=C\c2cccs2)SC1Cc1ccc(Cl)cc1Cl (configuration not stated),"inconclusive: 3.26 µM [cytotoxic, full curve]",–
Cn1c(=O)c2c(ncn2CC(=O)N2CCN(c3ccccc3F)CC2)n(C)c1=O,–,inactive: 7.26%
CCC(C)N1CCN(S(=O)(=O)Cc2ccccc2)CC1 (configuration not stated),–,inactive: -0.193%
CCN(CC)c1ccc(/C=N/NS(=O)(=O)c2cccc([N+](=O)[O-])c2)cc1,"inconclusive: 16.4 µM [cytotoxic, partial curve, poor fit]",–
O=C(NCc1cccc(C(F)(F)F)c1)c1cc(Cl)ccc1Cl,–,inactive: -12.5%
CN(CC(=O)NCCc1ccc(S(N)(=O)=O)cc1)CC(=O)Nc1ccccc1Cl,–,inactive: -2.39%
CCc1ccc(NC(=O)C2CCN(S(=O)(=O)c3c(C)noc3C)CC2)cc1,"inconclusive: 18.4 µM [rising, single point]",–
CCOC(=O)c1cnc(SC)nc1Sc1cc(Cl)ccc1Cl,"inconclusive: 29.1 µM [cytotoxic, single point]",–
CCCCOc1ccc(OCCCN2CCOCC2)cc1,"inconclusive: 18.4 µM [cytotoxic, single point]",–
O=C(Cc1cccs1)N(CC1CCCO1)C1(C(=O)NC2CCCC2)CCCCC1 (configuration not stated),"inconclusive: 7.31 µM [cytotoxic, partial curve]",–
O=C(NCc1cccnc1)c1c(O)c2cccc3c2n(c1=O)CCC3,"inconclusive: 23.1 µM [cytotoxic, partial curve]",–
O=C(N/N=C/c1cccnc1)c1cccc(Cl)c1,"inconclusive: 18.4 µM [rising, partial curve]",–

# Source: PubChem BioAssay AID1347076 (National Center for Advancing Translational Sciences (NCATS), 2019)
